The chains are these.
B1: RB-H1 (peptide)
peptide: QRHPEDICLPRWGCLWGDDD
B2: BA-B37 (peptide)
peptide: GENWCDWVLLAYDLCGEDNT
B3: RB-B8 (peptide)
peptide: HSQMEDICLPRWGCLWGDEL
B4: HA-H74 (peptide)
peptide: EVRSFCTDWPAHYSCTSLQG
B5: BA-B44 (peptide)
peptide: GEDWCDSTLLAFDLCGEGAR
B6: RBC-R14 (peptide)
peptide: EEDLCLPVWGCLWGA
B7: HBC-H1 (peptide)
peptide: DSEVCYFPGICWSGT
B8: RB-R8 (peptide)
peptide: QGLIGDICLPRWGCLWGDSV
B9: BA-B39 (peptide)
peptide: MELWCDSTLMAYDLCGDFNM
B10: RD-R2 (peptide)
peptide: DTCADLVRLGLECWA
B11: SA08 (peptide)
peptide: QGLIGDICLPRWGCLWGDSVK
modifications: N-terminus printed as Ac-, C-terminus printed as -n

The text below walks through data of patent US20040253247A1.

No constants are given. Whether binding was seen depends on the method and setting. For some assays here: Binding calls can cover weak binding; strength is not graded here. For some assays here: Sequences can lack the tags named with a protein.

In one assay the target is casein. In words: phage ELISA, photograph of the plate. For orientation: An ELISA detects its analyte on a solid surface through an enzyme-linked reagent.
For the molecule B1, the binding entry is listed as “no binding”.

As to B2, the binding entry is given as “no binding”.

Take B3: the binding entry is “no binding”.

For B4, the binding entry is “no binding”.

Regarding B5, the binding result is listed as “no binding”.

As to B6, the binding result is reported as “no binding”.

B7: the binding result is on record as “no binding”.

B8: the binding result is recorded as “no binding”.

On to B9, for which the binding entry was “no binding”.

B10: the binding entry was “no binding”.

The target of the next assay is albumin (species not stated, D3H44 fusion assays). Nature of the assay: SA08b competition binding assay (competitor: biotinylated SA08b), albumin species not given.
For B11, the binding result is on record as “binds”.
